Assay results

From PubChem BioAssay record AID1159506 (NCATS, 2015).

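Genome-wide siRNA knockdown in TC32 Ewing sarcoma cells, comparing luciferase light from an NR0B1-promoter reporter with a CMV-promoter reporter 48 hours after transfection.
Each siRNA was applied at 20 nM.
A z-score of the log NR0B1-over-CMV signal, less the median of siRNAs with the same seed; more negative means a stronger specific loss of the NR0B1 reporter.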

The strongest results of the screen are mostly left out here.
Sequences are the guide (antisense) strand, without overhang.

UAUCCUGCAACAUCCAGCG against TRIM68 gave seed-corrected z-score -0.6489. UGGGUUUCAGUCUCUACUC against LOC649133 gave seed-corrected z-score 1.299. With UCGAUGACCGUCUUCUUGC against TFDP1 the assay gave seed-corrected z-score -0.6959. Result for UCUCAUACAGCUGCUGACC against GCK was seed-corrected z-score -0.1238.

Result for AUGCUGCUCAUGUAGGUGG against CCDC78 was seed-corrected z-score 0.01455. With UACAUGACAGCUUAAGUGG against VEZF1 the assay gave seed-corrected z-score -1.265. Result for UCUGAUUGAAGGUAAACUG against NLRP11 was seed-corrected z-score -0.6477. AAAGAUUCCACAAAGCUCC against MRPL45 read seed-corrected z-score 0.7229.

With UCCAGUUCUCUAGUUUUGC against CDRT4 the assay gave seed-corrected z-score -0.1666. For UUAGUAGCAUCAUCUAGUG against SASS6 the result was seed-corrected z-score -0.9133. UAGGAUCUCAACUUCAGUG against MUM1 read seed-corrected z-score 0.2406. For UAUACUCCUCUGGUUGCUG against TCF20 the result was seed-corrected z-score 0.2423.

Result for UUUGUGGUCGAAGGAGUCG against PVALB was seed-corrected z-score -0.8719. ACAGCUACAAUGUAGAUGA against OR52H1 gave seed-corrected z-score -0.02306. UAACUUGUCUGCAUACACC against CTDSPL2 read seed-corrected z-score 0.09175. UGUAGGCACAGAGUCCACC against LYG1 read seed-corrected z-score 0.3416.

Result for UUUCAAUUCUUUCAUCACC against PAK2 was seed-corrected z-score 0.04143. AUGGUGGUAAUGACGGUCG against KCNK5 read seed-corrected z-score -1.148. UUUGUAGUAUCUUCAAUCC against THOC1 gave seed-corrected z-score -0.08604. With UAUUGUACUUGGUUGCUUC against HLA-DQA1 the assay gave seed-corrected z-score -0.3952.

GGCUUUAUUGGUUCAGGGC against TTC36 gave seed-corrected z-score 0.9936. Result for UGAGGAACUGGUCAGGAAG against LOC391322 was seed-corrected z-score -0.991. Result for UUCUGUAGACUGAUUGAGG against USP29 was seed-corrected z-score -0.4159. UAAGAUCUCUCUCCUUAUG against THRAP3 gave seed-corrected z-score 0.1654.

UUCAUACUCUGCGUCCUUC against NLRP14 gave seed-corrected z-score -0.9201. UUCCUUUUCAUCGUGCCCA against PAIP2B read seed-corrected z-score -0.5493. With AUAUCGAUCAGAAACCAGC against TDRD5 the assay gave seed-corrected z-score 0.491. For UACUGAUCCAGAGACACCG against RASGRP2 the result was seed-corrected z-score 0.09508.

UAACGGAGUAAUUUCUCGG against MAGT1 gave seed-corrected z-score -0.2927. UUUGUCUUCAGGUCUAUUC against CFLAR gave seed-corrected z-score 0.6408. Result for UGCCUUAGCAACUGCAUCC against C14orf166 was seed-corrected z-score -0.795. With UAUUGAUUUGGUCAUUGUC against TGFBR3 the assay gave seed-corrected z-score -0.2357.

Result for AGAGCUAUUAGCAUCAACC against SRCAP was seed-corrected z-score 0.3682. With UUUCUUCUUACAACAACGG against MICA the assay gave seed-corrected z-score 0.4517. For AGAGUUGAGGGUGUCAUCC against LOC647983 the result was seed-corrected z-score -1.673. Result for ACAGCGAAAAGAUCCGUCG against FBN2 was seed-corrected z-score -0.07113.

UCUGCAAUGAUAAUAUUCU against DEFB131 gave seed-corrected z-score -0.4676.